This assay deals with NRP1 (neuropilin 1) expressed from an adenovirus on DU145 cells (UniProt O14786). The assay is described as follows: cell based binding displacement assay (biotinylated ligand, streptavidin-HRP, A450); DU145 cells infected with Ad.NRP1 in 96-well plates; various concentrations of competitor then 1 nM bt-VEGF-A165; binding medium with or without 0.1% BSA; 2 h at room temperature; apparent affinity judged by IC50; only the binder purified.

Protein sequences, listed by entry. Tags and fused reporters are not part of them. Residues count along the entry.
UniProt O14786, residues 22-923: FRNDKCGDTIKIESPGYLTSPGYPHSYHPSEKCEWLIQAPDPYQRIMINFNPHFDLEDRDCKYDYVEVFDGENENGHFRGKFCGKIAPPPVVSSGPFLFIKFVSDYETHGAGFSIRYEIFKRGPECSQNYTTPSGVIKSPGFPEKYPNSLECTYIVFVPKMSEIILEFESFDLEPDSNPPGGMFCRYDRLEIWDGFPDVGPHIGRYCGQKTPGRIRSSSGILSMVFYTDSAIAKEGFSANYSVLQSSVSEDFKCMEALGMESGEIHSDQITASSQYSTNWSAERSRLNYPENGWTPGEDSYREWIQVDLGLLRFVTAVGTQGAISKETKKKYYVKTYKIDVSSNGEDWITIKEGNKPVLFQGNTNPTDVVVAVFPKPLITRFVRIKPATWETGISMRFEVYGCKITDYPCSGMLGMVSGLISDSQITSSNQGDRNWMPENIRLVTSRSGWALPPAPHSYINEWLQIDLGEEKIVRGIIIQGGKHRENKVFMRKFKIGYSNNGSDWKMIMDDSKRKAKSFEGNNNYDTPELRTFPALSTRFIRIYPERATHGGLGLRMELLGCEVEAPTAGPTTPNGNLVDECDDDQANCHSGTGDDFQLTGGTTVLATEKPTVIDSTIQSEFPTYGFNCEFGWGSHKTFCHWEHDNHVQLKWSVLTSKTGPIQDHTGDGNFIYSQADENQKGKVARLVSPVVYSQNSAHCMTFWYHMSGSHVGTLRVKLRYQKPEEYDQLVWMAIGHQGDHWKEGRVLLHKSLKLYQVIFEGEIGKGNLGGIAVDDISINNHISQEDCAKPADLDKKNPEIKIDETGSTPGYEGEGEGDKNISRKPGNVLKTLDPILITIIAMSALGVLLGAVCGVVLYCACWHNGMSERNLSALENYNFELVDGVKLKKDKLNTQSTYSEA

Results are given in words; binding and its absence hold for the method and conditions named. Some binding calls cover weakened binding; strength is not graded here. Sequences can lack the tags named with a protein.

On to PCGPCSERRKHLFVQDPQTCKCSCKNTDSRCKARQLELNERTCRCDKPRR (domain or fragment), for which the binding entry is reported as “binds”.

On to PCGPCSERRKHLFVQDPQTCKCSCKNTDSRCKARQLELNERTCRCDKPRR (domain or fragment) [VEGF-A165-HBD with the His6-tag removed], for which the binding entry is “binds”.

Source of the values: PMC3568127.
